# Experimental data: PubChem BioAssay AID1487 (National Center for Advancing Translational Sciences (NCATS), 2009)
# Some of the results follow. These are further read-outs of the screen, such as a control signal, another cell line or another target. No call is given for them. Compounds called inactive in the main read-out are mostly missing here. The note in brackets gives the kind of curve behind each potency; many fits are weak.
# Assay: qHTS Assay for Modulators of Lamin A Splicing
# Conditions: HeLa LMNA splicing GFP/RFP minigene ratio, 48 h
# Method in brief: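 Read-out is the ratio of GFP to DsRed2 object intensity, acquired by 488 nm laser-scanning cytometry on HeLa lamin A-EGFP minigene reporter cells. Compound incubation 48 hrs at 37 °C in Opti-MEM with 2% FBS; DMSO 0.5% final.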
# [1] = measured here: GFP splicing reporter channel
# [2] = measured here: RFP viability control channel
SMILES,AC50 [1],AC50 [2]
CSCC[C@H](NC(=O)OC(C)(C)C)c1nnc(SCc2ccccc2)o1,"22.4 µM [rising, single point]","35.5 µM [rising, single point]"
N#Cc1nc(-c2ccccc2F)oc1NCc1cccc2c1OCO2,,"31.6 µM [rising, single point]"
N#CC(C#N)=C1C=C2C=C(N3CCCCC3)CCC2CC1 (stereo not drawn),"0.891 µM [falling, full curve]","1 µM [falling, full curve]"
CCOc1ccc(CCNC(=O)CCSCc2ccc(Cl)cc2)cc1OCC,,"22.4 µM [rising, single point]"
O=C(NCCC1=CCCCC1)C1COc2ccccc2O1 (stereo not drawn),"0.00447 µM [rising, full curve, poor fit]","0.00447 µM [rising, full curve, poor fit]"
CN(C)Cc1ccccc1-c1nc(NCc2ccccc2)c2ccccc2n1,,"12.6 µM [rising, partial curve, poor fit]"
N#C/C(=C\C=C\c1ccccc1)C(=O)NCc1cccnc1,,"12.6 µM [rising, single point]"
CCn1ncc(C(=O)Nc2ccc(S(=O)(=O)N3CCCC3)cc2)c1C,"35.5 µM [rising, single point]",
O=C(c1ccc(Cl)c(S(=O)(=O)Nc2ccccc2C(=O)N2CCc3ccccc3C2)c1)N1CCc2ccccc2C1,,"12.6 µM [rising, single point]"
Cc1ccc(NC(=S)NC(=O)c2ccc(F)cc2)cc1S(=O)(=O)Nc1ccccc1Cl,,"31.6 µM [rising, single point]"
COc1ccc(-n2nc([N+](=O)[O-])c(=NCCc3ccccc3)n2O)cc1,,"35.5 µM [rising, single point]"
CC(C)C1CCC(C(=O)NC(Cc2ccccc2)C(=O)O)CC1 (stereo not drawn),"0.708 µM [rising, single point]","0.794 µM [rising, full curve, poor fit]"
Cc1ccc2nc(NC(=O)Cn3nc(C)c([N+](=O)[O-])c3C)sc2c1,,"0.0891 µM [rising, full curve, poor fit]"
O=C(c1ccc(-c2cc(Cl)ccc2Cl)o1)N1CCOCC1,"0.0708 µM [falling, full curve, poor fit]","0.0794 µM [falling, full curve, poor fit]"
CC(C(=O)Nc1ccccc1C(=O)O)n1c(C(F)(F)F)nc2ccccc21 (stereo not drawn),,"14.1 µM [rising, single point]"
Cc1ccc(C(=O)Nc2nnc(S(=O)(=O)N3CCc4ccccc43)s2)cc1,,"0.112 µM [falling, full curve, poor fit]"
CSc1nc2ccccc2cc1/C=C(\C#N)c1cccc(C)c1,"25.1 µM [falling, single point]","20 µM [falling, single point]"
CC1CCCCN1S(=O)(=O)c1ccc2c(c1)oc(=O)n2CC(=O)O (stereo not drawn),"0.794 µM [falling, full curve, poor fit]","0.794 µM [falling, full curve, poor fit]"
CC1C/C(=C/c2cccn2C)C(=O)/C(=C/c2cccn2C)C1 (stereo not drawn),,"35.5 µM [falling, single point]"

SMILES,AC50 [1],AC50 [2]
CC(=O)NCCn1c(SCC(=O)Nc2ccc(C)cc2)nc2ccccc2c1=O,"4.47 µM [rising, full curve, poor fit]",
CC(Sc1nc(N)c2c3c(sc2n1)CSC(C)(C)C3)C(=O)Nc1ccccc1 (stereo not drawn),,"12.6 µM [rising, partial curve, poor fit]"
CCCCOc1cccc(C(=O)N(Cc2cccs2)c2ccc(OC)cc2)c1,,"11.2 µM [rising, single point]"
O=C(c1ccc([N+](=O)[O-])cc1)N1CCSC1c1ccccc1Cl (stereo not drawn),,"12.6 µM [falling, partial curve]"
Cc1ccccc1CN1C(=O)c2ccccc2Sc2ccc(C(=O)NC3CCCC3)cc21,"0.02 µM [falling, full curve]",
Cc1ccc(Cl)cc1-n1ncc2c(N3CCCCCC3)ncnc21,"31.6 µM [falling, partial curve, poor fit]",
CCCN1CCN(c2ccc([N+](=O)[O-])cc2C#N)CC1,,"0.0501 µM [rising, full curve, poor fit]"
COc1ccc(-n2c(C)cc(C(=O)Cn3nc(C(=O)O)c4ccccc4c3=O)c2C)cc1,,"35.5 µM [rising, single point]"
CC(C)COC[C@H](CN(Cc1ccccc1)c1ccccc1)N1CCCC1,"0.00631 µM [falling, full curve, poor fit]","0.00708 µM [falling, partial curve, poor fit]"
COc1ccc(-n2nnnc2SCC(=O)c2cc3ccccc3o2)cc1,,"35.5 µM [rising, single point]"
COc1ccc(/C(N)=N/OC(=O)c2cccs2)cc1OC,,"0.01 µM [falling, full curve, poor fit]"
O=C(OCc1nnc(-c2ccccc2)o1)C12CC3CC(CC(Br)(C3)C1)C2,,"0.794 µM [falling, full curve, poor fit]"
COc1ccc([C@@H]2CNC(=O)C2)cc1OC1CCCC1,"3.16 µM [falling, single point]","0.002 µM [falling, full curve, poor fit]"
CCOc1ccc(CCNC(=O)c2ccc(-n3c(C)cc4c3CCC(C)C4)cc2)cc1OCC (stereo not drawn),"35.5 µM [falling, single point]","35.5 µM [falling, single point]"
CC1=C(C(=O)Nc2ccc(C)cc2Cl)C2(CCCCCC2)OC1=O,"25.1 µM [rising, partial curve]",
Cc1ccc(C)c2sc(N3CCN(C(=O)C(C)(C)C)CC3)nc12,"0.00447 µM [falling, full curve, poor fit]",
COc1cc(C(=O)Nc2ccc(C(C)=O)cc2)c(Br)c(OC)c1OC,"35.5 µM [rising, single point]",
CCCCC(CC)CNC(=O)CN(C)S(=O)(=O)c1cccc2nsnc12 (stereo not drawn),"17.8 µM [rising, partial curve, poor fit]","25.1 µM [rising, single point]"
O=C(/C=C/c1ccc(O)cc1)c1ccc(NC2=C(N3CCCCC3)C(=O)c3ccccc3C2=O)cc1,"12.6 µM [rising, partial curve]","11.2 µM [rising, partial curve]"

# Some of the entries so far, as tab-separated lines:
SMILES	AC50 [1]	AC50 [2]
CC(=O)NCCn1c(SCC(=O)Nc2ccc(C)cc2)nc2ccccc2c1=O	4.47 µM [rising, full curve, poor fit]	
CC(Sc1nc(N)c2c3c(sc2n1)CSC(C)(C)C3)C(=O)Nc1ccccc1 (stereo not drawn)		12.6 µM [rising, partial curve, poor fit]
CCCCOc1cccc(C(=O)N(Cc2cccs2)c2ccc(OC)cc2)c1		11.2 µM [rising, single point]
O=C(c1ccc([N+](=O)[O-])cc1)N1CCSC1c1ccccc1Cl (stereo not drawn)		12.6 µM [falling, partial curve]
Cc1ccccc1CN1C(=O)c2ccccc2Sc2ccc(C(=O)NC3CCCC3)cc21	0.02 µM [falling, full curve]	
Cc1ccc(Cl)cc1-n1ncc2c(N3CCCCCC3)ncnc21	31.6 µM [falling, partial curve, poor fit]	
CCCN1CCN(c2ccc([N+](=O)[O-])cc2C#N)CC1		0.0501 µM [rising, full curve, poor fit]
COc1ccc(-n2c(C)cc(C(=O)Cn3nc(C(=O)O)c4ccccc4c3=O)c2C)cc1		35.5 µM [rising, single point]
CC(C)COC[C@H](CN(Cc1ccccc1)c1ccccc1)N1CCCC1	0.00631 µM [falling, full curve, poor fit]	0.00708 µM [falling, partial curve, poor fit]
COc1ccc(-n2nnnc2SCC(=O)c2cc3ccccc3o2)cc1		35.5 µM [rising, single point]
COc1ccc(/C(N)=N/OC(=O)c2cccs2)cc1OC		0.01 µM [falling, full curve, poor fit]
O=C(OCc1nnc(-c2ccccc2)o1)C12CC3CC(CC(Br)(C3)C1)C2		0.794 µM [falling, full curve, poor fit]
COc1ccc([C@@H]2CNC(=O)C2)cc1OC1CCCC1	3.16 µM [falling, single point]	0.002 µM [falling, full curve, poor fit]
CCOc1ccc(CCNC(=O)c2ccc(-n3c(C)cc4c3CCC(C)C4)cc2)cc1OCC (stereo not drawn)	35.5 µM [falling, single point]	35.5 µM [falling, single point]
CC1=C(C(=O)Nc2ccc(C)cc2Cl)C2(CCCCCC2)OC1=O	25.1 µM [rising, partial curve]	

# (next part)

SMILES,AC50 [1],AC50 [2]
CCN(CCCNC(=O)c1[nH]c(C)c(C(C)=O)c1C)c1ccccc1,,"15.8 µM [rising, single point]"
CCOC(=O)c1[nH]c2ccc(Br)cc2c1NC(=O)CCN1CCCCC1,,"12.6 µM [rising, single point]"
CC(=O)OCC1OC(OC(C)=O)C(NC(=O)Cc2ccccc2)C(OC(C)=O)C1OC(C)=O (stereo not drawn),,"14.1 µM [rising, partial curve]"
C/C(=N\OCC(=O)Nc1nc2ccccc2s1)c1ccccc1,"4.47 µM [rising, single point]","3.55 µM [rising, single point]"
O=C(Nc1ccc(OC(F)F)c(Cl)c1)C(c1ccccc1)c1ccccc1,,"17.8 µM [rising, single point]"
COc1cccc(C(c2nnnn2CCc2ccccc2)N2CCN(c3ccccc3)CC2)c1OC (stereo not drawn),,"20 µM [rising, partial curve, poor fit]"
COc1cc(NC(=O)Cn2nc(-c3ccc(F)cc3)ccc2=O)ccc1-n1cnnn1,,"35.5 µM [rising, single point]"
Cc1ccc(NC(=O)c2c(NC(=O)CCC(=O)O)sc3c2CCCCC3)cc1,"28.2 µM [falling, single point]",
COc1cccc(NC(=O)C(=O)NCc2ccncc2)c1,,"0.00447 µM [rising, full curve, poor fit]"
COc1ccc(-n2c(COc3cccc4ccccc34)nnc2SCC(=O)NCc2ccco2)cc1,,"35.5 µM [rising, single point]"
O=C(CCl)Nc1ccc(N2CCCCCC2)cc1,,"17.8 µM [falling, partial curve]"
COc1ccc(CNC(=O)c2ccc(CN3C(=O)C(C)=C(c4ccc(C)cc4)S3(=O)=O)cc2)cc1,"0.631 µM [falling, partial curve]","0.631 µM [falling, full curve]"
CCN(CC)S(=O)(=O)c1ccc(C(=O)NCc2nnc(SCC(=O)OC)n2C)cc1,"3.16 µM [rising, partial curve]","2.82 µM [rising, partial curve, poor fit]"
Cc1c(Cl)cccc1NC(=S)NCc1ccc2c(c1)OCO2,"0.00891 µM [rising, full curve, poor fit]",
Cc1ccc(C)c(NC(=O)c2ccccc2NS(=O)(=O)c2cc([N+](=O)[O-])ccc2C)c1,,"2.82 µM [rising, partial curve]"
CCN(C(=O)COC(=O)c1ccc(Br)o1)C1CCCCC1,,"0.0447 µM [rising, full curve, poor fit]"
c1ccc(CC2CCN(C3=Nc4cccc5cccc3c45)CC2)cc1,,"5.62 µM [rising, partial curve]"
Nc1c(C(=O)N/N=C/c2cccnc2)cnn1-c1ccccc1,"3.98 µM [rising, single point]",
O=C(Nc1nc(-c2ccc(F)cc2)cs1)C1CCCO1 (stereo not drawn),"14.1 µM [rising, single point]","31.6 µM [rising, single point]"
